Experimental data published in patent US20230330180A1 (priority 2022, published 2023).

Experiment: in vitro
Details: African green monkey

## CCC(CC)COC(=O)[C@H](C)N[P@](=O)(OC[C@H]1O[C@@](C#N)(c2ccc3c(N)ncnn23)[C@H](O)[C@@H]1O)Oc1ccccc1 [Remdesivir, remdesivir]
  CC50: > 50 µM
